Measured data: PubChem BioAssay AID652243 (Drosophila RNAi Screening Center, 2013)

Assay: 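Fly regulators of androgen-dependent reporter output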 (primary screen)
System: Drosophila S2R+ cells
Knock-down reagent: long dsRNA against Drosophila genes
Timing: 72 h (48 h, then 24 h hormone)
Treatment: synthetic androgen R1881 at 10 nM for 24 h
Measurement: 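Firefly light from an androgen-responsive reporter and Renilla control light per well, raw and unnormalised, for each of two replicates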
Scale: firefly reporter light: higher = more light from androgen-responsive reporter; Renilla control light: higher = more constitutive control signal (cell number, transfection)
Rule for the call: 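Across duplicate plates, a knock-down whose log firefly/Renilla ratio shifted a set fold down or up from the GFP/LacZ control mean was a hit; the downward cut appears as both 1.5 and 3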
Calls: active = hit: reporter lowered or raised; inactive = no hit
The deposit covers about 24,000 reagents; shown is an unselected part of those that have a named target and a result. In the full data, 246 (1%) are marked active. 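Plates not normalised; calls are printed but the firefly/Renilla ratio behind them is not deposited; fold cut for lowering reported inconsistently.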 Raw values vary from plate to plate and are shown uncorrected. Unmarked entries are inactive. Reagents against one gene are numbered here. Not given: the amount of reagent.

gene	dsRNA no.	firefly reporter light, replicate 1	firefly reporter light, replicate 2	Renilla control light, replicate 1	Renilla control light, replicate 2
CG13124	1	1.33e6	1.31e6	2.35e6	2.72e6
CG13124	2	2.36e5	2.78e5	7.48e5	8.44e5
CG10337	1	1.28e5	1.59e5	1.38e6	1.38e6
AttB (Attacin-B)	1	26844	88328	7.71e5	7.71e5
AttB (Attacin-B)	2	4.89e5	4.17e5	1.18e6	8.78e5
asl (asterless)	1	21262	71433	3.76e5	3.54e5
CG14440	1	7.65e5	9.65e5	1.14e6	1.50e6
CG14440	2	4.87e5	8.10e5	9.70e5	1.28e6
CG14440	3	3.16e5	4.06e5	8.38e5	6.27e5
Twdlalpha (Tweedlealpha)	1	3.42e5	2.03e5	3.05e6	2.25e6
Twdlalpha (Tweedlealpha)	2	5.03e5	3.68e5	1.18e6	1.34e6
aurB (aurora B)	1	8.70e5	6.65e5	2.26e6	1.62e6
aurB (aurora B)	2	3.77e5	4.61e5	1.09e6	8.91e5
CG8945	1	7.30e5	7.24e5	4.11e6	3.32e6
Bulli	1	1.16e5	86877	1.87e6	9.16e5
Sgs5 (Salivary gland secretion 5)	1	2.18e5	2.21e5	2.11e6	2.32e6
in (inturned)	1	2.04e5	2.33e5	2.00e6	2.15e6
Mms19	1	30874	21307	2.74e5	3.03e5
Mms19	2	2.86e5	3.05e5	8.01e5	5.85e5
CG12012	1	1.74e5	1.89e5	1.69e6	2.19e6
stv (starvin)	1	1.08e5	86166	2.30e6	1.62e6
stv (starvin)	2	5.27e5	7.29e5	8.64e5	8.43e5
CG18273	1	3.68e5	3.12e5	3.47e6	3.04e6
CG18273	2	6.26e5	6.50e5	1.77e6	1.44e6
PIG-Q (Phosphatidylinositol glycan anchor biosynthesis class Q)	1	2.76e5	3.11e5	3.09e5	2.82e5
Dh44-R2 (Diuretic hormone 44 receptor 2)	1	4.66e5	2.86e5	2.55e6	1.97e6
Dh44-R2 (Diuretic hormone 44 receptor 2)	2	3.47e5	2.37e5	1.41e6	1.67e6
CG13557	1	3.34e5	4.21e5	2.06e6	2.44e6
Ugt303B3 (UDP-glycosyltransferase family 303 member B3)	1	1.52e5	1.79e5	3.08e6	2.95e6
Ugt303B3 (UDP-glycosyltransferase family 303 member B3)	2	2.88e5	3.69e5	1.15e6	1.03e6
Ugt303B3 (UDP-glycosyltransferase family 303 member B3)	3	1.10e6	8.68e5	1.78e6	1.79e6
Sirup (Starvation-upregulated protein)	1	3.04e5	3.16e5	2.45e6	2.66e6
Sirup (Starvation-upregulated protein)	2	1.02e6	7.82e5	2.19e6	1.65e6
Sirup (Starvation-upregulated protein)	3	6.12e5	4.99e5	1.55e6	1.27e6
CG13114	1	1.35e5	93870	1.60e6	9.13e5
spn-B (spindle B)	1	1.13e5	1.28e5	2.50e6	2.01e6
spn-B (spindle B)	2	3.30e5	4.04e5	7.98e5	7.27e5
dlp (dally-like)	1	1.03e5 (active)	99770	1.96e6	1.61e6
dlp (dally-like)	2	4.71e5	3.56e5	5.84e5	5.23e5
CG46441	1	94341	95593	1.34e6	1.25e6
CG46441	2	8.14e5	8.51e5	1.17e6	1.11e6
CG11437	1	2.40e5	2.69e5	2.98e6	3.20e6
Trmt61 (tRNA methyltransferase 61)	1	1.27e5	1.28e5	1.70e6	2.14e6
CG2681	1	82442	1.15e5	8.15e5	7.63e5
CG2681	2	9.87e5	8.00e5	8.46e5	7.56e5
CG31142	1	2.21e5	57943	1.40e5	73335
Rrp6	1	76004	76624	6.97e5	4.22e5
TfIIA-L (Transcription factor IIA L)	1	1.14e5	72077	7.30e5	8.84e5
tant (tantalus)	1	53134	54113	7.40e5	1.19e6
COX5BL (Cytochrome c oxidase subunit 5B-like)	1	2.37e5	2.27e5	2.40e6	1.98e6
COX5BL (Cytochrome c oxidase subunit 5B-like)	2	3.19e5	2.81e5	6.84e5	5.09e5
CG30447	1	1.13e5	2.12e5	3.63e5	3.23e5
CG13928	1	80224	66209	4.95e5	6.07e5
CG32191	1	1.40e5	1.27e5	2.10e6	2.27e6
CG3703	1	2.98e5	3.16e5	4.62e6	3.58e6
CG3703	2	3.64e5	4.95e5	5.22e6	2.95e6
CG3703	3	1.54e5	1.63e5	3.49e6	1.99e6
SK (small conductance calcium-activated potassium channel)	1	7.31e5	6.15e5	7.57e5	5.82e5
SK (small conductance calcium-activated potassium channel)	2	2.32e5	3.63e5	2.93e6	3.43e6
SK (small conductance calcium-activated potassium channel)	3	63391	1.26e5	1.97e6	1.37e6
SK (small conductance calcium-activated potassium channel)	4	1.03e5	1.06e5	8.23e5	5.33e5
SK (small conductance calcium-activated potassium channel)	5	2.28e5	1.91e5	5.15e5	8.65e5
CG1316	1	1.19e5	1.58e5	1.20e6	1.81e6
CG2652	1	4.75e5	4.75e5	4.07e6	3.34e6
CG2652	2	4.76e5	5.94e5	1.61e6	1.65e6
CG2652	3	3.37e5	2.24e5	5.25e5	4.23e5
Rcd-1 (Required for cell differentiation 1)	1	1.89e5	1.64e5	4.12e5	2.82e5
CG15208	1	44259	74028	2.86e5	4.19e5
cN-IIIB (cytosolic 5'-nucleotidase IIIB)	1	8.52e5	8.91e5	1.24e6	1.11e6
PolrMT (RNA polymerase mitochondrial)	1	7.36e5	1.04e6	1.92e6	1.39e6
Plp (Pericentrin-like protein)	1	1.29e5	1.73e5	1.49e6	1.92e6
Plp (Pericentrin-like protein)	2	1.30e5	1.54e5	1.49e6	1.40e6
Plp (Pericentrin-like protein)	3	2.93e5	8.39e5	7.29e5	1.88e6
RpS3A (Ribosomal protein S3A)	1	1.34e5	1.28e5	1.40e6	1.47e6
